PubChem BioAssay AID504784 | Drosophila RNAi Screening Center – 2011
The screen tested about 17,000 reagents; below is a random part of those with a known target gene and a result. 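Each column is one replicate's B-score; the combined score over replicates was not deposited, so single values may mislead.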 Not all columns of the deposit are shown. Reagent sequences are not shown.

Purpose: 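Search for regulators of lipid droplet storage in oleate-fed fly cells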 (primary screen)
System: Drosophila Kc167 embryonic cells
Reagent: long dsRNA against Drosophila genes, about 250 ng dsRNA per well
Time to read-out: 4 days
Challenge: cells fed 400 µM oleic acid bound to BSA
Measured: 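Microscope images give a droplet-to-nucleus area ratio, taken as log and converted to a screen-wide B-score; higher values mean greater lipid storage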
Reading the numbers: droplet/nuclear area B-score: higher = more stored lipid (overstorage)

How did the screen score RpL24 [DRSC03185]?
droplet/nuclear area B-score, replicate 1: 12.5

For pes [DRSC03033], what was measured?
droplet/nuclear area B-score, replicate 1: 0.298

With CG14245 [DRSC14740], what does the deposit list?
droplet/nuclear area B-score, replicate 1: 1.17

For CG7299 [DRSC03043], what does the deposit list?
droplet/nuclear area B-score, replicate 1: 0.685

Which result is listed for Cyp6g2 [DRSC07387]?
droplet/nuclear area B-score, replicate 1: 0.679

How did the screen score Hibch [DRSC15705]?
droplet/nuclear area B-score, replicate 1: 0.147

With CG6287 [DRSC02947], what was measured?
droplet/nuclear area B-score, replicate 1: -0.35

What did the screen give for CG14367 [DRSC14829]?
droplet/nuclear area B-score, replicate 1: -1.25

How did the screen score Rab8 [DRSC11261]?
droplet/nuclear area B-score, replicate 1: 0.297

With CG2218 [DRSC15428], what does the deposit list?
droplet/nuclear area B-score, replicate 1: -2.13

For Tep3 [DRSC03452], what was measured?
droplet/nuclear area B-score, replicate 1: 1.32

Which result is listed for CG10588 [DRSC11628]?
droplet/nuclear area B-score, replicate 1: -0.683

What did the screen give for CG31676 [DRSC02387]?
droplet/nuclear area B-score, replicate 1: 0.997

With CG8389 [DRSC07158], what does the deposit list?
droplet/nuclear area B-score, replicate 1: 0.197

With CG8389 [DRSC22855], what was measured?
droplet/nuclear area B-score, replicate 1: -0.693

For qkr58E-1 [DRSC04709], how do the results read?
droplet/nuclear area B-score, replicate 1: 0.685

Which result is listed for Xpac [DRSC18730]?
droplet/nuclear area B-score, replicate 1: -0.119

What did the screen give for CG13743 [DRSC05139]?
droplet/nuclear area B-score, replicate 1: 5.99

For CG13743 [DRSC06414], what was measured?
droplet/nuclear area B-score, replicate 1: 3.58

For CG13743 [DRSC22775], what does the deposit list?
droplet/nuclear area B-score, replicate 1: 0.366

With yellow-h [DRSC17141], what was measured?
droplet/nuclear area B-score, replicate 1: 0.564

For Uch [DRSC00797], how do the results read?
droplet/nuclear area B-score, replicate 1: 0.316

With wds [DRSC18852], how do the results read?
droplet/nuclear area B-score, replicate 1: -0.0483

Copied from the list.
Result of CG14367 [DRSC14829] under “droplet/nuclear area B-score, replicate 1”: -1.25
CG8389 [DRSC22855], droplet/nuclear area B-score, replicate 1: -0.693
Value for RpL24 [DRSC03185] in “droplet/nuclear area B-score, replicate 1”: 12.5
wds [DRSC18852], droplet/nuclear area B-score, replicate 1 → -0.0483

The list goes on:
With CG30369 [DRSC21996], how do the results read?
droplet/nuclear area B-score, replicate 1: 0.897

Which result is listed for CG3635 [DRSC03729]?
droplet/nuclear area B-score, replicate 1: -0.959

With TpnC73F [DRSC11307], what does the deposit list?
droplet/nuclear area B-score, replicate 1: -2.39

What did the screen give for CG15160 [DRSC02461]?
droplet/nuclear area B-score, replicate 1: -0.0339

For CG11696 [DRSC19417], what was measured?
droplet/nuclear area B-score, replicate 1: 0.00506

How did the screen score CG15209 [DRSC19655]?
droplet/nuclear area B-score, replicate 1: -1.5

What is on record for betaTry [DRSC07582]?
droplet/nuclear area B-score, replicate 1: -0.578

For betaTry [DRSC22377], how do the results read?
droplet/nuclear area B-score, replicate 1: -1.8

With CG2577 [DRSC19863], what does the deposit list?
droplet/nuclear area B-score, replicate 1: 2.6

With CG2577 [DRSC23309], what does the deposit list?
droplet/nuclear area B-score, replicate 1: 2.48

With CG42272 [DRSC08766], what does the deposit list?
droplet/nuclear area B-score, replicate 1: 1.12

For CG42272 [DRSC22502], what does the deposit list?
droplet/nuclear area B-score, replicate 1: 0.23

What is on record for Gr36c [DRSC02437]?
droplet/nuclear area B-score, replicate 1: 0.302

Which result is listed for CG9590 [DRSC16506]?
droplet/nuclear area B-score, replicate 1: 1.82

What is on record for Tmtc3 [DRSC04444]?
droplet/nuclear area B-score, replicate 1: 0.732

How did the screen score Urm1 [DRSC22941]?
droplet/nuclear area B-score, replicate 1: 1.2

What is on record for CG1428 [DRSC03708]?
droplet/nuclear area B-score, replicate 1: 1.13
